Source: paper PMC3988052
These are yes or no findings as the source states them, for the method shown. Binding seen in cells or lysates may run through a third protein. Some binding calls cover weakened binding; strength is not graded here. Tags and fused reporters may be left off the sequences shown.

Target: ATHB17Δ113::MYC-HA (C-terminal MYC-HA fusion of ATHB17Δ113) (Arabidopsis) (UniProt Q8S9N6)
Test: co-IP; bead-based co-immunoprecipitation with Luminex on-bead detection; lysates of co-transformed maize leaf protoplasts; capture on anti-MYC magnetic beads, detection with biotinylated anti-CFP and NeutrAvidin R-phycoerythrin; signal above mean + 3 sigma of the negative controls counted as positive

B1: ATHB17Δ113::MYC-HA (C-terminal MYC-HA fusion of ATHB17Δ113) (domain or fragment, UniProt Q8S9N6 114-275)
chain: MNRLPSSEDGDDEEFSHDDGSAPPRKKLRLTREQSRLLEDSFRQNHTLNPKQKEVLAKHLMLRPRQIEVWFQNRRARSKLKQTEMECEYLKRWFGSLTEENHRLHREVEELRAIKVGPTTVNSASSLTMCPRCERVTPAASPSRAVVPVPAKKTFPPQERDR
binding: binds
